Measured values from PubChem BioAssay AID504444 (National Center for Advancing Translational Sciences (NCATS), 2011).
In all, about 360,000 compounds went through this assay and about 7,500 (2.1%) were called active. This list was built around the results that the source calls inconclusive (neither active nor inactive); the mix of calls is not that of the screen. Calls follow the shape of the dose curve; as a rule, active = well fitted inhibition curve with a large enough effect; inconclusive = small, poorly fitted or top-dose-only effect, or effect the other way; inactive = flat fitted curve, though single readings scatter. Where the call is inconclusive, the potency comes from a doubtful curve fit.

Test: Nrf2 qHTS screen for inhibitors; also: nearly all actives have a fitted effect of over 60% in size
Settings: A549 ARE-Fluc reporter, luciferase luminescence, 18-24 h; activity change, negative = inhibition: at 46 µM (top of the series)
Outline: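 Cells were seeded and rested 2 h, then exposed to compounds for 18-24 h. CellTiter-Fluor was read first as a viability measure. BugLite was added 15 min before the final luminescent read of ARE-luciferase activity in A549 cells.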
% is scaled to controls: 0 for no effect and ±100 for the full control effect; potency is read from the fitted curve at half-maximal effect.

Compound	Potency	activity change, negative = inhibition
Cc1c(C(=O)NCCSCc2ccc(F)cc2)cnn1-c1ccc(Cl)cc1	inconclusive: 29.1 µM [falling, single point]	–
CCN(CC)CCCOC(=O)c1ccc(OC)cc1O	inconclusive: 3.66 µM [activator, partial curve, poor fit]	–
Cc1ccc(S(=O)(=O)N2CCCCC2)cc1NC(=O)c1ccncc1	–	inactive: -18.1%
OC(COCc1ccc(Cl)cc1)CN1CCN(CC(O)COCc2ccc(Cl)cc2)CC1 (stereo not drawn)	inconclusive: 6.51 µM [falling, partial curve]	–
COc1ccccc1-c1cc(C(=O)Nc2cc(C)nn2-c2ccccc2)no1	inconclusive: 7.31 µM [falling, partial curve, poor fit]	–
O=C(Nc1cccc(C(F)(F)F)c1)c1cc(-c2ccc3c(c2)OCCO3)on1	inconclusive: 23.1 µM [falling, single point]	–
CC(=O)c1ccc(NC(=O)[C@@H]2CCCN2C(=O)OC(C)(C)C)cc1	inconclusive: 25.9 µM [activator, partial curve]	–
CCOC(=O)C1=C(c2ccccc2)OC(N)=C(C#N)C1c1ccncc1 (stereo not drawn)	inconclusive: 18.4 µM [falling, partial curve, poor fit]	–
CCOc1ncccc1-c1nc(-c2cccs2)no1	inconclusive: 29.1 µM [activator, single point]	–
CCOC(=O)c1c(-c2ccc(OC)cc2)oc2ccc(OCc3ccc(Br)cc3)cc12	–	inactive: 11%
COc1ccc(S(=O)(=O)N2CCCCC2)cc1NC(=O)Cc1sc(C)nc1-c1ccc(F)cc1	inconclusive: 13 µM [falling, partial curve, poor fit]	–
Cc1cccc(NC(=O)c2ccc(NCCO)c([N+](=O)[O-])c2)n1	inconclusive: 8.2 µM [activator, partial curve]	–
S=C(NCC1CCCO1)N1CCN(c2nc(-c3ccccc3)cs2)CC1 (stereo not drawn)	active: 13 µM	–
CN(C)c1ccc(C2C=C(c3ccc(Cl)cc3OC(F)F)Nc3ncnn32)cc1 (stereo not drawn)	–	inactive: -51.9%
N#Cc1cc(Br)ccc1N=C1CCCN1c1ccccc1	inconclusive: 25.9 µM [activator, partial curve, poor fit]	–
O=C(NCCc1nc2ccccc2n1CCOc1ccccc1)C1CCCCC1	active: 25.9 µM	–
O=C1NC2=C(C(=O)CCC2)C(c2ccc([N+](=O)[O-])cc2)N1 (stereo not drawn)	inconclusive: 20.6 µM [falling, single point]	–
CCOP(=O)(OCC)C(Nc1cccc([N+](=O)[O-])c1)c1ccccc1 (stereo not drawn)	–	inactive: -6.02%
COc1ccc2cc3cc(C(=O)NCc4ccccc4OC)oc3nc2c1	inconclusive: 3.66 µM [falling, full curve, poor fit]	–
COc1ccc(C2=C(C)C(N3CCC(C(=O)Nc4ccc(F)cc4C)CC3)=NS2(=O)=O)cc1	inconclusive: 29.1 µM [activator, single point]	–
CCN(CCNC(=O)C1CCN(S(=O)(=O)c2c(C)noc2C)CC1)c1ccccc1	–	inactive: -6.49%
COc1ccccc1CNS(=O)(=O)c1cc(C(=O)N(C)Cc2cccnc2)c(Cl)cc1Cl	inconclusive: 9.2 µM [falling, partial curve, poor fit]	–

Compound	Potency	activity change, negative = inhibition
CCOc1cccc(-c2c(C(=O)N/N=C/c3sccc3C)nnn2-c2nonc2N)c1	active: 16.4 µM	–
O=C(Nc1ccc(Cl)c(C(F)(F)F)c1)C(Cc1ccccc1)NS(=O)(=O)c1ccc(Br)s1 (stereo not drawn)	–	inactive: 13.2%
Fc1ccc2cnc(-c3ccccc3)cc2c1	inconclusive: 7.31 µM [activator, partial curve]	–
C(=N\Nc1nc2ccccc2[nH]1)/c1ccncc1	inconclusive: 29.1 µM [activator, single point]	–
O=C(CSc1nnnn1-c1ccccc1)Nc1ccc(Cl)cc1	inconclusive: 2.06 µM [activator, full curve, poor fit]	–
Brc1cccc(-c2cnn3c(-c4ccccc4)cc(-c4ccccc4)nc23)c1	–	inactive: 10.4%
Cn1nc(C(F)(F)F)c(/C=N/OC(=O)c2ccccc2)c1SCc1ccc(Cl)cc1	inconclusive: 29.1 µM [falling, single point]	–
COCCNc1ncnc2c1[nH]c1ccccc12	inconclusive: 20.6 µM [falling, single point]	–
Cc1ccccc1OCCCCc1c(C)n[nH]c1C	inconclusive: 25.9 µM [falling, single point]	–
COc1ccc(S(=O)(=O)N2C[C@H]3CON(C)[C@H]3C[C@H]2c2cccc(Br)c2)cc1	–	inactive: -18.2%
S=C(N/N=C/c1ccccc1Cl)Nc1cccc(Cl)c1Cl	inconclusive: 29.1 µM [falling, single point]	–
C=CCSc1cc(C)nc2c(-c3ccc(Cl)cc3)c(C)nn12	inconclusive: 5.8 µM [falling, full curve, poor fit]	–
COc1ccc(C)cc1NC(=O)Cn1c(=O)n(Cc2nc(C)no2)c(=O)c2ccccc21	inconclusive: 29.1 µM [activator, partial curve, poor fit]	–
COc1ccc(C(=O)Nc2cccc(S(=O)(=O)NC3=NCCCCC3)c2)cc1	inconclusive: 23.1 µM [falling, partial curve, poor fit]	–
Clc1cccc(N/N=C(\Cc2nc3ccccc3[nH]2)c2ccccc2)c1	–	inactive: -8.3%
CC1=CC(C)(C)N(C(=O)CSc2nnc(C)s2)c2ccc(C)cc21	inconclusive: 20.6 µM [falling, single point]	–
O=C(CSC1CC(=O)N(CC(c2ccccc2)c2ccccc2)C1=O)Nc1ccc(Cl)cc1 (stereo not drawn)	inconclusive: 29.1 µM [falling, single point]	–
Cc1cccc(N2CCN(S(=O)(=O)c3csc(C(N)=O)c3)CC2)c1C	inconclusive: 25.9 µM [falling, single point]	–
CC(C)C(=O)Nc1ccc(NC(=O)c2ccccc2Cl)nc1	inconclusive: 25.9 µM [activator, partial curve, poor fit]	–
CCCC(c1nnnn1CC1CCCO1)N1CCN(c2cc(Cl)ccc2C)CC1 (stereo not drawn)	active: 25.9 µM	–
Cc1cc(C(=O)Nn2c(C3CCCCC3)nc3ccccc3c2=O)ccc1[N+](=O)[O-]	inconclusive: 29.1 µM [falling, single point]	–

Quoted from the listing:
Potency with C=CCSc1cc(C)nc2c(-c3ccc(Cl)cc3)c(C)nn12 is entered as inconclusive: 5.8 µM [falling, full curve, poor fit]
Potency with Cn1nc(C(F)(F)F)c(/C=N/OC(=O)c2ccccc2)c1SCc1ccc(Cl)cc1 is entered as inconclusive: 29.1 µM [falling, single point]
